Values of other authors as cited in US20070225544A1, “APPARATUSES AND TECHNIQUES FOR BIOACTIVE DRUG DELIVERY IN THE PROSTATE GLAND” (priority 2006, published 2007).

In the case of `C[C@@H]1C[C@H]2[C@@H]3CCC4=CC(=O)C=C[C@]4(C)[C@@]3(F)[C@@H](O)C[C@]2(C)[C@@]1(O)C(=O)COP(=O)(O)O` [Dexamethasone sodium phosphate], the Duration (relative duration of action of injectable corticosteroid agent) is given as “Long” and the Potency (relative potency of injectable corticosteroid agent) is given as “High”.
